# Laboratory results: PubChem BioAssay AID504774 (Drosophila RNAi Screening Center, 2011)
# Test: 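Knock-downs that shift viability of MMS-exposed cells relative to untreated ones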 (primary screen)
# Cells: Drosophila Kc167 cells
# Knock-down reagent: long dsRNA against Drosophila genes, about 0.25 µg dsRNA per well
# Duration: about 6 days: 3 days knock-down, then 3 days with or without MMS
# Conditions: methyl methanesulphonate 0.004% (w/v) for 3 days after knock-down
# Read-out: 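Viability in wells given MMS, read as ATP luminescence, normalised by quantiles plate by plate and averaged across replicates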
# Reading the numbers: mean viability with MMS and viability with MMS: higher = more surviving cells after MMS
# The deposit covers about 23,000 reagents; below is a random part of those that have a named target and a result. 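Values are quantile-normalised luminescence on an arbitrary scale; higher means more cells surviving MMS.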 Names joined by + are all predicted targets of the reagent.
gene,PubChem SID,mean viability with MMS,"viability with MMS, replicate 1","viability with MMS, replicate 2"
CG31266,SID104195539,3.58e6,4.08e6,4.05e6
CG13384,SID104182050,3.42e6,4.01e6,3.65e6
Nplp2,SID104189616,3.55e6,4.00e6,4.05e6
CG5079,SID104195505,3.01e6,3.61e6,3.64e6
CG5079,SID104202418,3.63e6,4.02e6,4.22e6
mei-38,SID104198356,3.53e6,4.06e6,3.96e6
CG17751,SID104195053,3.54e6,3.84e6,4.19e6
CG17751,SID104202196,3.40e6,4.00e6,3.80e6
orb2,SID104190332,3.58e6,4.08e6,4.06e6
orb2,SID104190333,3.53e6,3.99e6,4.02e6
orb2,SID104190334,3.52e6,3.94e6,4.04e6
oc,SID104198600,3.47e6,3.96e6,3.93e6
Gabat,SID104190638,3.48e6,3.95e6,3.92e6
CG15653,SID104184036,3.34e6,3.73e6,3.79e6
cuff,SID104186107,3.42e6,3.85e6,3.80e6
Cfp1,SID104197920,3.09e6,3.59e6,3.78e6
sky,SID104182175,3.69e6,4.36e6,4.10e6
sky,SID104183006,3.56e6,4.48e6,3.87e6
sky,SID104183007,3.65e6,4.04e6,4.23e6
Tom7,SID104184927,3.73e6,4.29e6,4.17e6
Tom7,SID104186905,3.73e6,4.11e6,4.20e6
Spt7,SID104199789,3.59e6,4.17e6,4.01e6
Klc,SID104190995,3.52e6,3.97e6,4.01e6
CG15756,SID104199513,3.65e6,4.18e6,4.06e6
Pgd,SID104198489,3.52e6,4.09e6,3.91e6
mAChR-A,SID104184494,3.60e6,3.85e6,4.31e6
CG43367 + CG32252 (retired record),SID104201389,3.43e6,3.86e6,3.96e6
CG34040,SID104183694,3.57e6,4.13e6,3.96e6
CG4789,SID104199710,3.57e6,4.06e6,4.02e6
AttB,SID104186526,3.59e6,4.34e6,3.94e6
CG1441,SID104186240,3.67e6,4.18e6,4.15e6
mal,SID104200373,3.59e6,4.07e6,4.09e6
Pfk,SID104187298,3.76e6,4.29e6,4.22e6
sp3,SID104196146,3.66e6,4.15e6,4.15e6
CG3587,SID104198333,3.57e6,3.98e6,4.12e6
CG3587,SID104201577,3.49e6,4.00e6,3.92e6
Cht6,SID104197793,3.49e6,4.00e6,3.91e6
Cht6,SID104197794,3.08e6,3.69e6,3.67e6
Cht6,SID104198045,3.63e6,4.06e6,4.15e6
Cht6,SID104202568,3.45e6,3.93e6,3.92e6
Iyd,SID104190406,3.71e6,4.19e6,4.16e6
Iyd,SID104190407,3.66e6,4.10e6,4.14e6
CG43328,SID104185432,3.53e6,4.10e6,3.91e6
HemK2 + Snapin,SID104180528,3.48e6,3.97e6,3.87e6
HemK2 + Snapin,SID104180529,3.45e6,3.87e6,3.93e6
CG13319,SID104186148,1.95e6,4.07e6,
Patsas,SID104182767,3.57e6,4.30e6,3.82e6
Ser12,SID104180578,3.42e6,3.93e6,3.78e6
Eaf6,SID104189693,3.48e6,3.94e6,3.97e6
CG31125,SID104193476,3.34e6,3.70e6,3.85e6
CG10137,SID104181806,3.60e6,3.86e6,4.33e6
CG10137,SID104181807,3.52e6,3.96e6,4.03e6
EndoU,SID104195264,3.47e6,3.94e6,3.95e6
CG3328,SID104184149,3.41e6,3.80e6,3.69e6
CG12842 (retired record),SID104185980,3.62e6,4.15e6,4.00e6
Eig71Ei,SID104190948,3.66e6,4.19e6,4.07e6
CG13377,SID104198414,3.51e6,3.98e6,3.99e6
Fpgs1,SID104199649,3.48e6,3.94e6,3.94e6
Rab4,SID104187316,3.70e6,4.18e6,4.19e6
Mmp1,SID104184285,3.35e6,3.74e6,3.77e6
CG34135 + Nasp,SID104196189,3.33e6,3.80e6,3.80e6
subdued,SID104194929,3.55e6,4.01e6,4.05e6
Fbp1,SID104190958,3.35e6,3.76e6,3.77e6
CG17806,SID104195068,3.75e6,4.10e6,4.33e6
CG15734,SID104199493,3.67e6,4.09e6,4.18e6
CG34030,SID104188658,3.68e6,4.05e6,4.22e6
CG7992,SID104199862,3.61e6,4.20e6,3.95e6
pigs,SID104197264,3.59e6,4.04e6,4.07e6
pigs,SID104198126,3.55e6,3.87e6,4.18e6
pigs,SID104198127,3.58e6,3.92e6,4.22e6

As entered above.
Entry for mAChR-A [SID104184494] in “viability with MMS, replicate 1”: 3.85e6
For “viability with MMS, replicate 1”, subdued [SID104194929] reads 4.01e6
For “viability with MMS, replicate 2”, CG1441 [SID104186240] has 4.15e6
Entry of Patsas [SID104182767] under “mean viability with MMS”: 3.57e6
Result for CG15653 [SID104184036] in “viability with MMS, replicate 1”: 3.73e6
For “viability with MMS, replicate 2”, CG10137 [SID104181807] shows 4.03e6
